Results: the supplement of paper PMC6411743
± gives the standard deviation of the averaged measurements. This is a selection; strong and weak results do not stand in their true shares. Most entries show no effect beyond the scatter of the controls.

Protein sequences, listed by entry. Tags and fused reporters are not part of them. Lines headed by an entry give the natural chain unless they say otherwise; changes in a name come on top.
UniProt P46013: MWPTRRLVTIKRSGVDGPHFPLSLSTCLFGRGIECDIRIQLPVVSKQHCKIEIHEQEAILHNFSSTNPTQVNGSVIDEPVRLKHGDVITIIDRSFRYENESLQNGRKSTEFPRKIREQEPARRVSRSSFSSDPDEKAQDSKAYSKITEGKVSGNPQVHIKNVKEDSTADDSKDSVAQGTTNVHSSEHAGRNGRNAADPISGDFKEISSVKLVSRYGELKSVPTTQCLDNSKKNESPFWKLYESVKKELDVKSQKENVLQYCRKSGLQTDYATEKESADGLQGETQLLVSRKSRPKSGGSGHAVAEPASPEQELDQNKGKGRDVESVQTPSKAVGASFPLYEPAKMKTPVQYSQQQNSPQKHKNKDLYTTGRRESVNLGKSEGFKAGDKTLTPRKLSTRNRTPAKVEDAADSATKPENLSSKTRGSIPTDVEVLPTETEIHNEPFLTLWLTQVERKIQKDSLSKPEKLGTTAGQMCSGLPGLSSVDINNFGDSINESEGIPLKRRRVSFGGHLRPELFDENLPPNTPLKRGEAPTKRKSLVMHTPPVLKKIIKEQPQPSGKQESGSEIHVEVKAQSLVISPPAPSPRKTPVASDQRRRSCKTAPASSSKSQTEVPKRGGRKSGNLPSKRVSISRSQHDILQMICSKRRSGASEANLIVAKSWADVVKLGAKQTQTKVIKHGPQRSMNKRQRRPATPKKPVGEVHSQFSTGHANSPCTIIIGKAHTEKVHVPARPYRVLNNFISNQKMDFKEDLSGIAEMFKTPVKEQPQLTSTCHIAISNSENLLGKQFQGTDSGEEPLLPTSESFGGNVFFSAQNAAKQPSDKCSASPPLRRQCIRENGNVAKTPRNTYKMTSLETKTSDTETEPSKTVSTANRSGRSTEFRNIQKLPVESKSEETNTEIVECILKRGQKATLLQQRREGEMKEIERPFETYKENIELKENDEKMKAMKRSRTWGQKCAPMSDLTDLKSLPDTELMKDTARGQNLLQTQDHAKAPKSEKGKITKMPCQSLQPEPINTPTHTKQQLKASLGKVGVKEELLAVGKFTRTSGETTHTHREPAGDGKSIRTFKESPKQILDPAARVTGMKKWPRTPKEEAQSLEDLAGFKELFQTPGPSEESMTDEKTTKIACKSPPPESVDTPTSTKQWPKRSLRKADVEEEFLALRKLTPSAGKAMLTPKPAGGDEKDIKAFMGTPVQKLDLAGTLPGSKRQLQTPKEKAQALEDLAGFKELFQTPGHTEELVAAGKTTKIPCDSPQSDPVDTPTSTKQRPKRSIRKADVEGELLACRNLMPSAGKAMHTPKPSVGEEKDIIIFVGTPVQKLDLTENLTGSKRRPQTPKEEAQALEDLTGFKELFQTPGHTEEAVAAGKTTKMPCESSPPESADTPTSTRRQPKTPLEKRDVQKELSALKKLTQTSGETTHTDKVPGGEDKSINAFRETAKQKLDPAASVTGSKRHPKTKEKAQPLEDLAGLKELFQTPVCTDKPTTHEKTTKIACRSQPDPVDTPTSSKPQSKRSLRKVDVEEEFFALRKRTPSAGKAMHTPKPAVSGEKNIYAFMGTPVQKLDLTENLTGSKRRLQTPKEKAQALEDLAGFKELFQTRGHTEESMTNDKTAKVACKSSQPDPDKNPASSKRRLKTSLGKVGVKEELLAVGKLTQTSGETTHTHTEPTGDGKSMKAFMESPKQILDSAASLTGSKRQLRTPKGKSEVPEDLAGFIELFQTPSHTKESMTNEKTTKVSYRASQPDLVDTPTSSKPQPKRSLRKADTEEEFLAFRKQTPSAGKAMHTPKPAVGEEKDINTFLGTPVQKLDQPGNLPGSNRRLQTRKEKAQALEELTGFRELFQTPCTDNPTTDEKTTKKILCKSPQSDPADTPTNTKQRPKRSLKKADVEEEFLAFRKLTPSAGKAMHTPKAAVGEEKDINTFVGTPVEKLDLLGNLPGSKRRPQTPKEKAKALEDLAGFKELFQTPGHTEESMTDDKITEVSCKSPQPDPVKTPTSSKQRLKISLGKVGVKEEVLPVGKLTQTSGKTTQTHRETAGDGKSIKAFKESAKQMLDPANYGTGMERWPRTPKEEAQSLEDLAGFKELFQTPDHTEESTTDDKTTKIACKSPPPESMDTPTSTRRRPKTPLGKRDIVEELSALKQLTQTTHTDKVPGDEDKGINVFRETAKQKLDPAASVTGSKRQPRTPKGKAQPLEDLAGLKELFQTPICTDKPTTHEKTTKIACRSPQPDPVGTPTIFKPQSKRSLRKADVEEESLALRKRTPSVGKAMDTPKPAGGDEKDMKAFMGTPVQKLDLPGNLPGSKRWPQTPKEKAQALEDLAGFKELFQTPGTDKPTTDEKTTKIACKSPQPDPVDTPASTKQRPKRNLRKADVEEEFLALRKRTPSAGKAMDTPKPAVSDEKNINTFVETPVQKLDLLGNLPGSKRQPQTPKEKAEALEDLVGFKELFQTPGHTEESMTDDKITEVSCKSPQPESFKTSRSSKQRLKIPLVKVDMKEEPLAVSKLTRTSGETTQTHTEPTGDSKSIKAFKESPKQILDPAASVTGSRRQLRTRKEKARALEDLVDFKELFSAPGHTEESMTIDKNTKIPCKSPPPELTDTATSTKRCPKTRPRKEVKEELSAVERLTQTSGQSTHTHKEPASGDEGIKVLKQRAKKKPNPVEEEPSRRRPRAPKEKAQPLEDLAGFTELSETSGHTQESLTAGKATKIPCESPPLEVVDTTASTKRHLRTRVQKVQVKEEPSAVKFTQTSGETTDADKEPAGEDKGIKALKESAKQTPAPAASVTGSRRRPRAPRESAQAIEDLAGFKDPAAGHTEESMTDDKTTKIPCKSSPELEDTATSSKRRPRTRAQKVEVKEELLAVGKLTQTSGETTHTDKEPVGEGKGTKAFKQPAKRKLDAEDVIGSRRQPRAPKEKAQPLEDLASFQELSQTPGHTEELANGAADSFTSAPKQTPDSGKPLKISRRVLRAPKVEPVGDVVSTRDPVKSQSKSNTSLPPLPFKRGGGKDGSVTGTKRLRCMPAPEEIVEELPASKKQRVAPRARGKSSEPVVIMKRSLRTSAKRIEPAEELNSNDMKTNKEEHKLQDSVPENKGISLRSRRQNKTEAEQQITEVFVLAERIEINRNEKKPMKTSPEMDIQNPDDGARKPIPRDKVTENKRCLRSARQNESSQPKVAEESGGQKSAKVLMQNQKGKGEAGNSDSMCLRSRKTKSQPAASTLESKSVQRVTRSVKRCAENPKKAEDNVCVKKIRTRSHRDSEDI
UniProt Q14114: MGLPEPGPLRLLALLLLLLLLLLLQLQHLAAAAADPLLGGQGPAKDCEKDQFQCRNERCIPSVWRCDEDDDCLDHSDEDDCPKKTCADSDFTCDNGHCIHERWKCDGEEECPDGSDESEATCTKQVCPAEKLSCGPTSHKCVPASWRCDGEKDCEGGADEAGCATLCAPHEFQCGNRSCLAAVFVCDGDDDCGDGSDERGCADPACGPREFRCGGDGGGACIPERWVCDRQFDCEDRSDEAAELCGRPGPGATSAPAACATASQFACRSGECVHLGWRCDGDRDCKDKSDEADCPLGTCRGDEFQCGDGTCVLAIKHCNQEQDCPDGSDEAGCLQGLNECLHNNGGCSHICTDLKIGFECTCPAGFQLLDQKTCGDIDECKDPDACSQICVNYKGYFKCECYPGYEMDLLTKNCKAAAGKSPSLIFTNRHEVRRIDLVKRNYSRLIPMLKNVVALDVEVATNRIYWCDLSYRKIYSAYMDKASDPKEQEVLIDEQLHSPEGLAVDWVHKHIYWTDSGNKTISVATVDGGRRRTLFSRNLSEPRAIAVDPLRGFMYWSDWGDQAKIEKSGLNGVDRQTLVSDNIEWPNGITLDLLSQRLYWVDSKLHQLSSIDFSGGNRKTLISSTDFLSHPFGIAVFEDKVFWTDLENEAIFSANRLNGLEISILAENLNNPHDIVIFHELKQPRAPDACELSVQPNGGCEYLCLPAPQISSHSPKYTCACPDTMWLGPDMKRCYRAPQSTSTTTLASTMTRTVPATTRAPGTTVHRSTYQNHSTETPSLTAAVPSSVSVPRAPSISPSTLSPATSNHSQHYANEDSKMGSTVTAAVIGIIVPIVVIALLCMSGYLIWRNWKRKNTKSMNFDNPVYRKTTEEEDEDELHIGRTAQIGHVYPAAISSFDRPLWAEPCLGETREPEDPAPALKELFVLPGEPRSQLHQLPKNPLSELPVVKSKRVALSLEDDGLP
UniProt Q86XP1: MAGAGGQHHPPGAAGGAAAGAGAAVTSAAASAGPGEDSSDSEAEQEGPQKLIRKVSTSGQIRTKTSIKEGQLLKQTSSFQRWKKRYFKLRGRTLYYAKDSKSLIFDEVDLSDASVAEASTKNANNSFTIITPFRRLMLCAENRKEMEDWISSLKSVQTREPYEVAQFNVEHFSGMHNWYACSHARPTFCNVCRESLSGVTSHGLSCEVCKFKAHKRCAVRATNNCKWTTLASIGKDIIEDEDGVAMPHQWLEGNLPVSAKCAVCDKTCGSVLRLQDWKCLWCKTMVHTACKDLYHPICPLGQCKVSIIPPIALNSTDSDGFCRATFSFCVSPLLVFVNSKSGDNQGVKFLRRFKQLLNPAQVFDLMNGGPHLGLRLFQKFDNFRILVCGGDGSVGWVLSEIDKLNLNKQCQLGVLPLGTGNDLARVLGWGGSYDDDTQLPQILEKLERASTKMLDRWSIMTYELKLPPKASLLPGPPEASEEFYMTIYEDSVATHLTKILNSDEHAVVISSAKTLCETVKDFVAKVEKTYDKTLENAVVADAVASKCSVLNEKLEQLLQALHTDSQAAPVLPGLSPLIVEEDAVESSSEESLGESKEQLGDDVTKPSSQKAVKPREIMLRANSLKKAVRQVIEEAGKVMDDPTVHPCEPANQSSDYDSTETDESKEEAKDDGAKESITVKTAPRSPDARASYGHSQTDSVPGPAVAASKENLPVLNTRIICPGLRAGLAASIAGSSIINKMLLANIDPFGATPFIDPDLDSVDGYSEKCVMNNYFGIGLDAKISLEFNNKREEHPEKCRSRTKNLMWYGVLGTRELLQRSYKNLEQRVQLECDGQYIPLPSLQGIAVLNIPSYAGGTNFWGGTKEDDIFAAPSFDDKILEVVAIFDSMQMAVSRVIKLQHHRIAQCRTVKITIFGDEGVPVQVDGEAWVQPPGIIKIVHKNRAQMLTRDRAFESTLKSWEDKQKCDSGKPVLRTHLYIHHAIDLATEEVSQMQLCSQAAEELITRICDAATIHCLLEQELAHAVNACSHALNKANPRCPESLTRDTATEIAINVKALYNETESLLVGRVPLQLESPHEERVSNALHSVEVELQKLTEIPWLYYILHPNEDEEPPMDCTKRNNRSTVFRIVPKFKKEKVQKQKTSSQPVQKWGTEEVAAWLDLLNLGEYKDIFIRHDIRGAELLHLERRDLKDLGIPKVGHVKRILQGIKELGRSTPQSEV
UniProt P39656: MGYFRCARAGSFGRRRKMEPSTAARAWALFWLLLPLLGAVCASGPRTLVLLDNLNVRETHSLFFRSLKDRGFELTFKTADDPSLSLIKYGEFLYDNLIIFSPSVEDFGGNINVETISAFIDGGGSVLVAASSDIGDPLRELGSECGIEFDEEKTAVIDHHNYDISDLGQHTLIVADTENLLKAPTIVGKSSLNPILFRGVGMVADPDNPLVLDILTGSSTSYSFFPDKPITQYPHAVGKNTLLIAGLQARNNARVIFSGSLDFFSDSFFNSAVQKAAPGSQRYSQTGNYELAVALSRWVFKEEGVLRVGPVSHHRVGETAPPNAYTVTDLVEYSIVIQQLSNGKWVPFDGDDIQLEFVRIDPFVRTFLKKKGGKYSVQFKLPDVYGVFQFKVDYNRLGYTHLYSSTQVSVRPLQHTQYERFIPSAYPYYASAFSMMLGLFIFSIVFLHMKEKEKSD
UniProt Q15651: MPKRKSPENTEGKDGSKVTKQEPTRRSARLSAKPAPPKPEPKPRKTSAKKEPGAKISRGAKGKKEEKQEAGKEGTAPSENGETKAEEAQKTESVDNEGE
UniProt O43681: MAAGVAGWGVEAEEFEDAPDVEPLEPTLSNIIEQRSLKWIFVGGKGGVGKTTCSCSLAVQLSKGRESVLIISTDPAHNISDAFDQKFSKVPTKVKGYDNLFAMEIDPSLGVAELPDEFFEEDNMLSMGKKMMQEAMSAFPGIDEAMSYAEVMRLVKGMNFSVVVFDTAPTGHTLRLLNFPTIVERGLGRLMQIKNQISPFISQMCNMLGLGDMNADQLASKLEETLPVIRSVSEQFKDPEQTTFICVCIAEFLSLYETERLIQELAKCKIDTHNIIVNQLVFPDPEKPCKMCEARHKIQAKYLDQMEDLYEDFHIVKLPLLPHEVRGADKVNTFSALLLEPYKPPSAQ
UniProt O75586: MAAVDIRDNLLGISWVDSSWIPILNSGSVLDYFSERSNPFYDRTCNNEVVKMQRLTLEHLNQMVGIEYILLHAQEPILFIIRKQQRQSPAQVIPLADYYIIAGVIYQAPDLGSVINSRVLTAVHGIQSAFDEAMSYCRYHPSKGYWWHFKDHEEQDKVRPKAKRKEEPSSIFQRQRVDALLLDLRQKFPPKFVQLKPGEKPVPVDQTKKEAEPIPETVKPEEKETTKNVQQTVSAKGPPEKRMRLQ

Compound: Nc1ncnc2c1ncn2[C@@H]1O[C@H](COP(=O)(O)OP(=O)(O)OP(=O)(O)O)[C@@H](O)[C@H]1O [adenosine triphosphate]
Assay: NP40-soluble protein abundance relative to vehicle (solubility fold change) (ratio); higher = more soluble protein in presence of ATP
In short: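 In three independent experiments, Jurkat crude lysate made by Dounce homogenisation was treated for 10 min at room temperature and then 3 min at 37 °C with eight concentrations ranging from 0.1 to 10 mM. It was then solubilised with 0.8% NP40 plus benzonase for 60 min at 4 °C and ultracentrifuged. The supernatant was TMT-labelled for LC-MS/MS, and each value is the fold change against the detergent-processed vehicle for the same replicate, using vsn-normalised intensities.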

Target	NP40-soluble protein abundance (concentration: 0.1mM)	NP40-soluble protein abundance (concentration: 0.5mM)
A0A087WU02|F8VPA6 and related entries (UniProt Q96RQ1)	1.01 ± 0.11	0.971 ± 0.041
A0A0A6YYI3|A0A0B4J1V8|Q9NQ55 and related entries (UniProt Q9NQ55)	0.997 ± 0.038	1.03 ± 0.021
A0A087WV66|P46013 and related entries (UniProt P46013)	0.994 ± 0.014	1.01 ± 0.039
A0A0A0MSJ9|Q15283 and related entries (UniProt Q15283)	1.06 ± 0.11	1.05 ± 0.09
A0A087WW84|Q14114-2|Q14114 and related entries (UniProt Q14114)	1.03 ± 0.035	0.995 ± 0.045
A0A087WTJ2|Q8WWP7 (UniProt Q8WWP7)	1.06 ± 0.045	1.05 ± 0.03
A0A0D9SGJ6|J3KQV8 and related entries (UniProt O43426)	1.03 ± 0.015	1.03 ± 0.033
A0A087X1S6|B5MDU3 and related entries (UniProt Q96JA3)	1.06 ± 0.18	1.02 ± 0.17
A0A0C4DGV5|O95218 and related entries (UniProt O95218)	0.968 ± 0.019	0.945 ± 0.026
A0A0A0MT60|Q5T1M5 (UniProt Q5T1M5)	0.9822 ± 0.0098	0.992 ± 0.057
A0A0C4DG40|Q8NF91 and related entries (UniProt Q8NF91)	0.971 ± 0.03	1 ± 0.027
A0A087WUM0|A0A087WYV9|A0A087X1F5 (UniProt P57105)	0.959 ± 0.086	0.9 ± 0.04
A0A0C4DFM1|Q92544 (UniProt Q92544)	1.11 ± 0.15	1.06 ± 0.066
A0A0C4DGZ0|A0A087WWE2 (UniProt P24928)	1.04 ± 0.035	1.08 ± 0.035
A0A0C4DG44|O43464 and related entries (UniProt O43464)	1.02 ± 0.063	0.992 ± 0.034
A0A087X0R0|F5H6S1 and related entries (UniProt O15550)	0.999 ± 0.063	1.01 ± 0.1
A0A0C4DGH3|Q9Y6R0 (UniProt Q9Y6R0)	1.01 ± 0.032	1.26 ± 0.018
A0A087X0R7|Q9H4L4 (UniProt Q9H4L4)	1.03 ± 0.13	0.956 ± 0.087
A0A087WWW9|O95999 (UniProt O95999)	0.945 ± 0.054	0.954 ± 0.04
A0A087WYK8|B1AKJ5 and related entries (UniProt O43847)	1.06 ± 0.057	1.06 ± 0.06
A0A0A0MTR2|Q8N543 (UniProt Q8N543)	1.04 ± 0.066	1.05 ± 0.086
A0A0A0MTG4|P82094 (UniProt P82094)	0.9808 ± 0.0097	0.986 ± 0.04
A0A0D9SFR6|Q86XP1 and related entries (UniProt Q86XP1)	1.02 ± 0.1	1.06 ± 0.087
A0A0C4DGS1|P39656 (UniProt P39656)	1.04 ± 0.078	1.02 ± 0.034
A0A087WTF0|A2A3K4 and related entries (UniProt A2A3K4)	0.992 ± 0.068	1.12 ± 0.26

Single records, as listed above. Order of values: NP40-soluble protein abundance (concentration: 0.1mM)	NP40-soluble protein abundance (concentration: 0.5mM)
A0A087WV66|P46013 and related entries (UniProt P46013) in the list: 0.994 ± 0.014	1.01 ± 0.039
A0A087WUM0|A0A087WYV9|A0A087X1F5 (UniProt P57105) in the list: 0.959 ± 0.086	0.9 ± 0.04
A0A0D9SFR6|Q86XP1 and related entries (UniProt Q86XP1) in the list: 1.02 ± 0.1	1.06 ± 0.087
A0A0C4DGS1|P39656 (UniProt P39656) in the list: 1.04 ± 0.078	1.02 ± 0.034

(continued)

Target	NP40-soluble protein abundance (concentration: 0.1mM)	NP40-soluble protein abundance (concentration: 0.5mM)
A0A0A0MSS8|P42330 and related entries (UniProt P42330)	1.03 ± 0.062	0.924 ± 0.057
A0A087WVF4|O14646 and related entries (UniProt O14646)	1.01 ± 0.017	0.987 ± 0.068
A0A0C4DFX9|Q9H3P2 (UniProt Q9H3P2)	1.04 ± 0.023	0.975 ± 0.019
A0A0C4DFL8|F5GX28 and related entries (UniProt O94953)	0.979 ± 0.076	1.03 ± 0.094
A0A087WW14|Q0VDG4 and related entries (UniProt Q0VDG4)	1.1 ± 0.19	1.06 ± 0.14
A0A075B746|P82921 (UniProt P82921)	0.978 ± 0.16	0.97 ± 0.091
A0A087WUK2|O14979-3 (UniProt O14979)	0.997 ± 0.034	1.03 ± 0.049
A0A0B4J1W0|F5GY88 and related entries (UniProt O75448)	1.04 ± 0.053	1.08 ± 0.073
A0A0A0MTD5|Q8IYU8 (UniProt Q8IYU8)	0.964 ± 0.29	0.928 ± 0.14
A0A0A0MQW0|A0A0A0MR39 (UniProt Q9P2K5)	1.02 ± 0.028	1.03 ± 0.035
A0A0A0MSA9|A0A0C4DG49|P15151 and related entries (UniProt P15151)	0.966 ± 0.017	0.861 ± 0.2
A0A087WZE9|Q15651 (UniProt Q15651)	1.03 ± 0.14	1.07 ± 0.2
A0A087WZV8|A0A0G2JN66 (UniProt P01850)	1 ± 0.043	1.01 ± 0.03
A0A087WTU1|A0A087X0S7|A0A0B4J2G4|A0A0C4DH00|Q15345 and related entries (UniProt Q15345)	1.06 ± 0.045	0.999 ± 0.022
A0A0C4DFV0|Q9H469 (UniProt Q9H469)	1.01 ± 0.024	0.978 ± 0.11
A0A0C4DFM7|Q5TAX3 (UniProt Q5TAX3)	1.02 ± 0.03	1.03 ± 0.07
A0A087X0W8|Q04206 and related entries (UniProt Q04206)	1.04 ± 0.06	1.009 ± 0.0023
A0A087WUQ6|P07203 (UniProt P07203)	0.991 ± 0.062	0.988 ± 0.025
A0A087WXS7|K7ERW9 and related entries (UniProt O43681)	1.05 ± 0.082	0.9666 ± 0.0085
A0A087X0C8|O15484 and related entries (UniProt O15484)	1.04 ± 0.039	0.983 ± 0.064
A0A0A0MRJ0|Q5VT25 and related entries (UniProt Q5VT25)	1.08 ± 0.029	1.24 ± 0.14
A0A0B4J2A0|Q9UHJ6 (UniProt Q9UHJ6)	0.974 ± 0.061	0.989 ± 0.07
A0A087WYL7|G3V4A5 and related entries (UniProt O75586)	0.956 ± 0.026	0.995 ± 0.03
A0A0A0MRK6|Q13505 and related entries (UniProt Q13505)	1.03 ± 0.066	1.05 ± 0.11
A0A0A0MT32|P38571 and related entries (UniProt P38571)	0.928 ± 0.054	0.909 ± 0.19
